PubChem BioAssay AID504467 (National Center for Advancing Translational Sciences (NCATS), 2011)
The whole screen tested about 330,000 compounds, of which about 7,700 (2.3%) were called active. This list was built around the results that the source calls inconclusive (neither active nor inactive); the mix of calls is not that of the screen. Calls follow the shape of the dose curve; as a rule, active = well fitted inhibition curve with a large enough effect; inconclusive = small, poorly fitted or top-dose-only effect, or effect the other way; inactive = flat fitted curve, though single readings scatter. Potencies beside an inconclusive call are fits to weak or partial responses and may not hold up.

Experiment: qHTS screen for small molecules that inhibit ELG1-dependent DNA repair in human embryonic kidney (HEK293T) cells expressing luciferase-tagged ELG1; also: nearly all actives have a fitted effect of over 55% in size
Conditions: HEK293T ELG1-luciferase reporter, luminescence, 16 h, DNA damage induced by 5-fluorouridine; series mostly up to 46.1 µM
Procedure, shortened: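 HEK293T cells expressing luciferase-tagged ELG1 (2,000/well) received 5-Fluorouridine plus compound or DMSO for 16 hr at 37 °C. Luciferase was read by ONE-Glo luminescence after 30 min at room temperature.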
Potency is read from the fitted curve at half-maximal effect.

With `O=C(COC(=O)/C=C/c1ccccc1[N+](=O)[O-])NC1CCS(=O)(=O)C1` (stereo not given) as the molecule, how does the Potency read?
Its Potency is “inactive”.

For `COC(=O)[C@@H]1C[C@H]2CC[C@H](O)C[C@H]2N1Cc1ccc(C)s1`, which Potency is on record?
The Potency was inconclusive: 14.6 µM [activator, partial curve, poor fit].

With `COc1ccc(-c2cc3c(=O)n(CC(=O)NCc4ccccc4F)ncn3n2)cc1` as the molecule, how does the Potency read?
The Potency was inconclusive: 7.3 µM [activator, partial curve].

With `Cn1c2ccccc2c(=O)c2c(=O)n(C3CCCCC3)c(-c3cccs3)nc21` as the molecule, how does the Potency read?
The Potency was “inactive”.

For `Oc1ccc(/C=N/N2CCCCC2)c(O)c1`, which Potency is on record?
The Potency was inconclusive: 16.4 µM [activator, partial curve].

Which Potency does the source give for `O=C(c1cnsn1)N1CCCC(Nc2ccc(F)c(F)c2)C1` (stereo not given) here?
The Potency was “inactive”.

With `O=C(C[C@@H]1C/C=C/CC[C@H](Cc2ccc(F)cc2)C(=O)OCCNC1=O)N[C@H](CO)Cc1ccccc1` as the molecule, how does the Potency read?
Its Potency is inconclusive: 20.6 µM [inhibitor, single point].

With `CCOC(=O)c1c(CN2CCOCC2)n(-c2ccccc2)c2cc(Br)c(O)cc12` as the molecule, how does the Potency read?
Its Potency is active: 23.1 µM.

With `COCC(=O)N(Cc1ccco1)c1nnc(C2CCOC2)s1` (stereo not given) as the molecule, how does the Potency read?
The Potency was inconclusive: 16.4 µM [activator, partial curve, poor fit].

Which Potency does the source give for `O=C(CC1C=Cc2ccccc2N1C(=O)c1ccccc1)c1ccccc1` (stereo not given) here?
Its Potency is inconclusive: 29.1 µM [inhibitor, single point].

Which Potency does the source give for `CN(C)C(=O)CN(C)S(=O)(=O)c1ccc(Cl)cc1` here?
The Potency was inconclusive: 1.16 µM [inhibitor, single point].

Which Potency does the source give for `CC(CC(=O)Nc1nc2ccccc2[nH]1)n1ccnc1` (stereo not given) here?
Its Potency is “inactive”.

For `Cc1ccccc1SCC(=O)OCC(=O)NCc1ccccc1`, which Potency is on record?
The Potency was “inactive”.

Which Potency does the source give for `CC(=O)N1C(=O)NC2=C(C(=O)CCC2)C1c1cccc([N+](=O)[O-])c1` (stereo not given) here?
The Potency was “inactive”.

With `CC(C)CN(CC(C)C)S(=O)(=O)N1CCC(C(=O)NC2CCCCCCC2)CC1` as the molecule, how does the Potency read?
Its Potency is “inactive”.

For `Cc1cc(C(=O)CSc2nnc(-c3ccccc3F)o2)c(C)n1Cc1cccs1`, which Potency is on record?
The Potency was inconclusive: 23.1 µM [inhibitor, single point].

For `CCN(CC)C(=O)c1cccc(NC(=O)c2cc(-c3ccccn3)nc3ccccc23)c1`, which Potency is on record?
Its Potency is inconclusive: 8.2 µM [inhibitor, partial curve, poor fit].

Which Potency does the source give for `CCN1CSC(=S)N(Cc2ccccc2)C1` here?
Its Potency is “inactive”.

With `COc1cccc(C2=CC(c3ccc(OC)c(OC)c3)NC(=S)N2)c1` (stereo not given) as the molecule, how does the Potency read?
The Potency was inconclusive: 23.1 µM [inhibitor, partial curve].

Which Potency does the source give for `O=C(COc1ccc(-n2ccnc2)cc1)Nc1cccc(Cl)c1` here?
The Potency was inconclusive: 7.3 µM [inhibitor, partial curve, poor fit].

With `O=C(Nc1ccccc1C(=O)NCCc1ccccc1)c1cnccn1` as the molecule, how does the Potency read?
Its Potency is inconclusive: 6.51 µM [activator, partial curve].

With `CC(C)Cn1c(N)c(C(=O)COC(=O)c2cc(-c3ccccc3)nc3ccccc23)c(=O)n(C)c1=O` as the molecule, how does the Potency read?
The Potency was active: 7.31 µM.

For `O=C(COc1ncnc2sccc12)Nc1ccc2c(c1)OCCO2`, which Potency is on record?
The Potency was inconclusive: 13 µM [activator, partial curve].

For `CCc1cc2c(SCC(=O)Nc3ncc(Cl)c(C)c3Cl)ncnc2s1`, which Potency is on record?
Its Potency is inconclusive: 16.4 µM [inhibitor, single point].

For `N#Cc1ccc(C23CC4(C2)[C@H](CN(CC2CCCCC2)[C@@H]4c2ccccc2)C3c2ccccc2)cc1` (stereo not given in full), which Potency is on record?
The Potency was “inactive”.

Which Potency does the source give for `Cn1nc(C(C)(C)C)c([N+](=O)[O-])c1C(=O)N1CCCCCC1` here?
The Potency was “inactive”.

For `CCOC(=O)c1ccc2c(c1)N(Cc1ccccc1C)C(=O)c1ccccc1S2=O` (stereo not given), which Potency is on record?
The Potency was active: 16.4 µM.

With `COc1ccc(NC(=O)CSc2n[nH]c(=O)n2Cc2ccccc2)cc1Cl` as the molecule, how does the Potency read?
Its Potency is inconclusive: 14.6 µM [inhibitor, partial curve, poor fit].

Which Potency does the source give for `CCOC(=O)C1(CCCc2ccccc2)CCN(CCCn2cccn2)CC1` here?
Its Potency is “inactive”.

With `Cc1c(NC(=O)c2ccc(Br)o2)cccc1C(=O)O` as the molecule, how does the Potency read?
Its Potency is inconclusive: 18.4 µM [activator, partial curve].

For `CCOc1ccccc1NC(=O)NC1CC2CCCC(C1)N2Cc1nnnn1CCc1ccccc1` (stereo not given), which Potency is on record?
Its Potency is inconclusive: 32.6 µM [inhibitor, partial curve, poor fit].

Which Potency does the source give for `O=C(OCCCN=C1NS(=O)(=O)c2ccccc21)c1ccc([N+](=O)[O-])cc1` here?
Its Potency is “inactive”.

With `Cc1ccnc(SCC(=O)c2cccs2)n1` as the molecule, how does the Potency read?
The Potency was inconclusive: 14.6 µM [activator, partial curve].

Which Potency does the source give for `CCCOP(=O)(c1ccc(N(C)C)cc1)C(O)c1ccc(N(C)C)cc1` (stereo not given) here?
The Potency was “inactive”.

Which Potency does the source give for `CC1C(=O)N2CCCc3cc(S(=O)(=O)N4CCN(c5ccccc5F)CC4)cc1c32` (stereo not given) here?
Its Potency is “inactive”.

Which Potency does the source give for `COc1ccc(S(=O)(=O)N2CCCC2C(=O)Nc2nnc(-c3cccnc3)s2)cc1` (stereo not given) here?
The Potency was inconclusive: 16.4 µM [inhibitor, partial curve, poor fit].

With `Cc1cnc(NC(=O)c2ccco2)s1` as the molecule, how does the Potency read?
The Potency was inconclusive: 5.17 µM [activator, partial curve].

With `COc1cc(-c2nc3ccccn3c2/N=C/c2cccc(F)c2)ccc1O` as the molecule, how does the Potency read?
Its Potency is “inactive”.

For `CC1CN(S(=O)(=O)c2cccc(C(=O)NCC3COc4ccccc4O3)c2)CC(C)O1` (stereo not given), which Potency is on record?
The Potency was inconclusive: 32.6 µM [inhibitor, single point].

With `Clc1ccc(Br)cc1-c1nc(-c2ccncc2)no1` as the molecule, how does the Potency read?
Its Potency is inconclusive: 7.31 µM [activator, partial curve, poor fit].

Which Potency does the source give for `Cc1ccc2c(c1)C(=O)C(=O)N2Cc1ccc(C(F)(F)F)cc1` here?
The Potency was inconclusive: 11.6 µM [activator, partial curve].

Which Potency does the source give for `COc1ccccc1/C=C\C(=O)NCC(=O)N/N=C/c1ccc(O)cc1O` here?
Its Potency is active: 23.1 µM.

Which Potency does the source give for `O=C(NC12CC3CC(CC(C3)C1)C2)N1CCN(c2nc(-c3ccccc3)cs2)CC1` here?
The Potency was inconclusive: 35.5 µM [inhibitor, partial curve, poor fit].

With `COC(CN(C(=O)CCl)C(C(=O)NC1CCCC(C)C1C)c1ccc(C)cc1)OC` (stereo not given) as the molecule, how does the Potency read?
Its Potency is “inactive”.

For `O=C(COC(=O)C1CC(O)CN1S(=O)(=O)c1ccccc1[N+](=O)[O-])c1ccc[nH]1` (stereo not given), which Potency is on record?
Its Potency is “inactive”.

For `COCCn1c(SCC(=O)NNC(=O)c2cc(Cl)ccc2OC)nnc1-c1ccncc1`, which Potency is on record?
Its Potency is “inactive”.

With `CC(C)c1ccc(OCc2cccc(C(=O)N/N=C/c3cccnc3)c2)cc1` as the molecule, how does the Potency read?
Its Potency is inconclusive: 0.291 µM [activator, full curve].

With `CN(c1ccc(C(=O)Nc2ccc3c(c2)n(C)c(=O)n3C)cc1)S(C)(=O)=O` as the molecule, how does the Potency read?
Its Potency is inconclusive: 20.6 µM [activator, partial curve].

Which Potency does the source give for `CCOc1ccc2oc(-c3ccccc3)c(C(=O)N(C)C)c2c1` here?
The Potency was inconclusive: 16.4 µM [inhibitor, partial curve, poor fit].

With `COc1ccc(/C=C/C2=CC(C)(C)NC(=S)N2)cc1` as the molecule, how does the Potency read?
The Potency was inconclusive: 29.1 µM [inhibitor, single point].

For `COc1ccccc1NS(=O)(=O)c1cc(NC(=O)/C=C/c2cccs2)ccc1N1CCOCC1`, which Potency is on record?
Its Potency is inconclusive: 5.8 µM [activator, full curve].

For `CCN(CC)C(=O)COc1c(-c2ccco2)oc2ccccc2c1=O`, which Potency is on record?
Its Potency is inconclusive: 29.1 µM [inhibitor, single point].

For `CC(=O)c1cc(F)c(N2CCN(C(=O)Cc3ccccc3)CC2)cc1C`, which Potency is on record?
The Potency was inconclusive: 14.6 µM [inhibitor, single point].

For `COc1ccc(C2C(C(=O)c3ccc(C)o3)=C(O)C(=O)N2Cc2ccco2)cc1OC` (stereo not given), which Potency is on record?
Its Potency is inconclusive: 0.291 µM [inhibitor, full curve].

For `Cc1ccc(NC(=S)N/N=C2\CCCCC2C)cc1` (stereo not given), which Potency is on record?
Its Potency is “inactive”.

Which Potency does the source give for `NC(=S)N=Nc1ccc(NN=C(N)N)cc1` here?
Its Potency is “inactive”.

Which Potency does the source give for `O=C(Oc1cc(-c2ccccc2)no1)c1ccc(Cl)cc1` here?
Its Potency is inconclusive: 11.6 µM [activator, partial curve, poor fit].

With `COc1ccc(N(C(C)=O)C2C=CS(=O)(=O)C2)c(OC)c1` (stereo not given) as the molecule, how does the Potency read?
The Potency was inconclusive: 23.1 µM [activator, partial curve, poor fit].

For `O=C(Nc1ccc2c(c1)OCO2)C1CCCN(S(=O)(=O)c2cccs2)C1` (stereo not given), which Potency is on record?
The Potency was “inactive”.

Which Potency does the source give for `COc1ccc(C(=O)NC2CCCCC2)cc1OC1CCN(C(C)C)CC1` here?
Its Potency is “inactive”.

Which Potency does the source give for `CC(C)n1cc(CN2CCCC(C(=O)Nc3ccccc3Oc3cccnc3)C2)cn1` (stereo not given) here?
Its Potency is “inactive”.

With `Cc1ccc(Cl)cc1N1CCN(C(=O)c2ccc(CS(=O)Cc3ccc(Cl)cc3)o2)CC1` (stereo not given) as the molecule, how does the Potency read?
Its Potency is “inactive”.

Which Potency does the source give for `CCOc1ccc(NC(=O)CC2C(=O)N(c3ccc(OC)cc3)C(=S)N2Cc2ccccn2)cc1` (stereo not given) here?
The Potency was inconclusive: 29.1 µM [inhibitor, single point].

Which Potency does the source give for `CCn1c(CNC(=O)Cc2ccc(OC)cc2)nnc1SCCOc1ccccc1` here?
Its Potency is inconclusive: 25.9 µM [inhibitor, single point].

For `CCOC(=O)c1cc(C(=O)Nc2cccc(C)c2)nn1C`, which Potency is on record?
The Potency was inconclusive: 6.51 µM [activator, partial curve].

Which Potency does the source give for `CCOc1ccc(OCC)c(NC(=O)CSc2nnc(Cn3cnc4ccccc43)n2C)c1` here?
Its Potency is inconclusive: 20.6 µM [inhibitor, single point].

With `Cc1cccc(/C=C/c2onc(C)c2S(=O)(=O)N2CCC(C(=O)NC(C)(C)C)CC2)c1` as the molecule, how does the Potency read?
The Potency was inconclusive: 10.3 µM [inhibitor, partial curve, poor fit].

For `COc1cccc(NC(=S)NN=C2CCCCCC2)c1`, which Potency is on record?
Its Potency is inconclusive: 6.51 µM [activator, partial curve].

For `Cc1ccc(SCC(=O)Nc2ncc(C)s2)cc1`, which Potency is on record?
Its Potency is inconclusive: 14.6 µM [activator, partial curve].

With `O=C(NCCc1ccc(Cl)cc1)c1ccc2c(c1)OCCO2` as the molecule, how does the Potency read?
The Potency was inconclusive: 2.59 µM [activator, partial curve].
